The structures given here were assigned with low confidence; some may be wrong.
Experiment: Pharmacokinetics (plasma exposure) after i.v. or p.o. dosing, non-compartmental analysis
Conditions: rat, 10 mg/kg, DMSO/PEG400/PBS (5%/30%/65%)

T-Last: 12 h
Terminal Half-life elimination, t½z: 1.22 ± 0.367 h
Tmax: 3.38 ± 2.28 h
Compound: O=C(O)CC/C=C\C[C@@H]1CO[C@H](c2ccccc2Cl)O[C@@H]1c1ccccc1O

Reference: patent publication US8486994B2, “Prodrugs of substituted 1,3-dioxanes and their uses” (Evolva SA, priority 2007, dated 2013)
